# From PubChem BioAssay AID2685 (National Center for Advancing Translational Sciences (NCATS), 2010)
# The list shows a part of the results. Shown are side measurements of this screen, not its main read-out; they come without a call. Compounds called inactive in the main read-out are mostly missing here. Potencies come from curve fits of mixed quality, noted in brackets.
# Experiment: qHTS Assay for Lipid Storage Modulators in Drosophila S3 Cells;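 on cell number change: cells counted by Cell Tracker Red CMTPX staining in the red channel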
# Details: BODIPY lipid droplet fluorescence, 18-24 h; for cell number change: measured here: cell count max response, cells fed with added oleic acid
# Summary of the method: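 Drosophila S3 cells loaded with oleic acid (400 uM, as added) and compounds at several concentrations; lipid droplets imaged by 488-nm laser-scanning cytometry, 500–530 nm intensity and object ratio to cell channel. Percent activity normalized to 20 uM Triacsin C.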
# [1] = measured here: cell number channel AC50, cells fed with added oleic acid
# [2] = measured here: lipid fluorescence (Fed channel) AC50, cells fed with added oleic acid
SMILES,cell number change [%],AC50 [1],AC50 [2]
CC(c1nnc(SCC(=O)Nc2ccc3[nH]c(=O)[nH]c3c2)n1Cc1ccccc1)N(C)C (stereo not drawn),-11.5,,
CC1CCCN(C(=O)c2cn(-c3ccccc3)nc2-c2cccnc2)C1 (stereo not drawn),-25,"0.366 µM [falling, partial curve, poor fit]",
O=C(CSc1ccc(-c2ccc(-n3cccn3)cc2)nn1)Nc1ccccc1F,5.9,,"4.11 µM [falling, single point]"
COCc1ccc(C(=O)N2CCCC(N(C)CCc3ccc(OC)c(OC)c3)C2)s1 (stereo not drawn),4.4,,
O=C(O)/C=C/c1ccc(S(=O)(=O)N2CCN(CCN3C(=O)C4C5C=CC(C5)C4C3=O)CC2)cc1 (stereo not drawn),-16.7,,"0.00461 µM [falling, full curve, poor fit]"
COc1ccc(NC(=O)CNc2ccccc2N2CCCC2=O)cc1S(=O)(=O)N1CCOCC1,6.56,,"4.11 µM [rising, full curve]"
CCCCC(O)(CCN1CCOCC1)c1ccc(Cl)cc1 (stereo not drawn),,"0.13 µM [falling, full curve, poor fit]","0.58 µM [falling, single point]"
CCOC(=O)C(C)Sc1nc2c(c(-c3cccs3)c1C#N)CCC2 (stereo not drawn),-20.1,,"0.116 µM [rising, full curve, poor fit]"
COC(=O)CCCC(=O)N1CCOCCN(C(=O)CCCC(=O)OC)CCOCC1,4.11,,"36.6 µM [falling, partial curve, poor fit]"
Clc1ccc(-c2nc3ccccc3[nH]2)cn1,-4.94,,"2.59 µM [falling, single point]"
COc1ccc(-c2cc(C(=O)N3CC(C)CC(C)C3)c3ccccc3n2)cc1OC (stereo not drawn),4.76,,"0.231 µM [rising, full curve, poor fit]"
CC(C(=O)OCC(=O)N1CCN(c2ccccc2)CC1)N1C(=O)c2ccccc2C1=O (stereo not drawn),5.26,,"0.92 µM [falling, full curve, poor fit]"
CCCN1CCN(C(=O)c2cc(COc3ccc(F)cc3F)on2)CC1,,"0.00461 µM [falling, full curve, poor fit]",
COc1ccc(S(=O)(=O)Nc2ccccc2N2CCOCC2)cc1OC,-0.0645,"0.92 µM [rising, single point]","6.51 µM [falling, single point]"
COc1ccc(C2C(C(=O)N3CCN(c4ccccc4F)CC3)c3ccccc3C(=O)N2C)cc1 (stereo not drawn),,"1.84 µM [rising, partial curve]","2.06 µM [rising, partial curve]"
CCSc1nnc(-c2cc3c(s2)-c2ccccc2CC3)o1,7.48,,
Cc1csc(Nc2ccccc2)n1,-34.2,,
CCN(CC)C(=O)Cn1cnc([N+](=O)[O-])n1,15.3,,"0.651 µM [rising, single point]"
CC(C)(C)OC(=O)c1c(N)n(CCCN2CCCC2=O)c2nc3ccccc3nc12,24.4,"0.259 µM [rising, full curve]","0.092 µM [rising, full curve, poor fit]"
CC(=O)c1cc(Cc2csc(C(C)=O)c2)cs1,2.86,,
Cc1ccc(N2CCN(CCCN3C(=O)C4CCCN4C3=O)CC2)cc1 (stereo not drawn),,,"0.0058 µM [rising, full curve, poor fit]"

SMILES,cell number change [%],AC50 [1],AC50 [2]
CN(C)/C=N/c1cnc(C(=O)c2ccc(Cl)cc2)n1C,15.4,"2.06 µM [rising, single point]",
Nc1c(S(=O)(=O)c2ccccc2)cnc2c(-c3ccc(F)cc3)cnn12,-18.5,,
COc1ccc(C)cc1NC(=S)Nc1ccccc1SC,17.7,,"2.59 µM [falling, partial curve]"
CCOC(=O)c1sc(NC(=O)C(CC)Sc2nnc3c4ccccc4n(C(C)C)c3n2)nc1C (stereo not drawn),-31.2,"1.84 µM [falling, partial curve, poor fit]","0.058 µM [falling, full curve, poor fit]"
CCCCN1C(=O)C(NC(C)=O)c2cc(Br)ccc21 (stereo not drawn),28.4,,
COc1cc(NC(=O)C(c2ccccc2)c2ccccc2)c(C(=O)O)cc1OC,17.3,,"29.1 µM [rising, single point]"
C=CCn1c(COc2ccc(OC)cc2)nnc1SCn1nnc2ccccc2c1=O,47.2,"20.6 µM [rising, single point]",
CCOc1ccc(N(CC(=O)OC)S(=O)(=O)c2c(C)noc2C)cc1,-14.1,,
O=C(Nc1cccc(C(=O)N2CCCc3ccccc32)c1)c1ccccc1,-39.8,"16.4 µM [falling, single point]",
CCOC(=O)N1CCC(NC(=O)CN2C(=O)CSc3ncccc32)CC1,11.2,,"23.1 µM [falling, partial curve]"
CCn1nnc(NC(=O)c2ccc(-c3ccccc3[N+](=O)[O-])o2)n1,95.1,"23.1 µM [rising, single point]","23.1 µM [rising, partial curve]"
CN(C)C(=O)c1ccc(NC(=O)CSc2nnc(-c3ccc4c(c3)OCO4)o2)cc1,,,"29.1 µM [rising, single point]"
NC(=O)c1cc2cc(Cl)ccc2oc1=Nc1cccc(C(F)(F)F)c1,-32.8,"18.4 µM [falling, single point]","23.1 µM [falling, single point]"
CCN(CC)C(=O)Oc1cc(=O)n(C)c2ccccc12,33.3,"1.84 µM [rising, full curve]","5.17 µM [rising, partial curve]"
COc1ccc(-c2cc(C(=O)Nc3sc4c(c3C#N)CCCC4)c3ccccc3n2)cc1OC,,,"20.6 µM [rising, single point]"
CCc1cccc(Nc2c3c(nc4ncnn24)CCC3)c1,7.4,,"0.651 µM [rising, full curve, poor fit]"
COc1ccc(C(CNC(=O)c2ccc(Cl)s2)N2CCOCC2)cc1 (stereo not drawn),37,"5.8 µM [rising, full curve, poor fit]",
C=CCOc1c(Cl)cc(CNn2cn[nH]c2=S)cc1OC,32.8,"35.5 µM [rising, single point]",
CCOC(=O)/C(C(=O)Nc1ccc(Cl)cc1Cl)=C1/NC(C)(C)Cc2ccccc21,-26.2,,"29.1 µM [falling, single point]"
O=C(N[C@@H](Cc1ccccc1)C(=O)O)c1cccs1,9.4,,
CCn1c(SCC(=O)Nc2nc3ccc(OC)cc3s2)nnc1-c1ccoc1C,-10.8,,"29.1 µM [falling, single point]"

SMILES,cell number change [%],AC50 [1],AC50 [2]
Cc1nn(-c2ccccn2)c2c1C(c1ccccn1)C1=C(CCCC1=O)N2 (stereo not drawn),,,"0.517 µM [rising, partial curve, poor fit]"
Cc1occc1C(=O)Nc1nn[nH]n1,5.16,,"6.51 µM [rising, single point]"
COc1ccc(CCNC(=O)Cc2cccs2)cc1,-1.49,,
CC1=C(C(=O)Nc2ccccc2)C2(CCCCC2)C(C#N)=C(SCC(N)=O)N1,-3.8,,"0.00461 µM [falling, full curve, poor fit]"
Nn1c(-c2ccc(F)cc2)nc2ccccc2c1=O,27.9,"3.26 µM [rising, full curve, poor fit]","29.1 µM [rising, single point]"
Cc1cc(C(=O)Nc2sc3c(c2C#N)CCCCC3)cs1,-33.8,"29.1 µM [falling, single point]","5.17 µM [rising, full curve, poor fit]"
Cc1ccc(NC(=O)N[C@H](C(=O)O)C(C)C)c(C)c1,13,,"29.1 µM [rising, single point]"
Cc1ccc(-n2ccnc2SCC(=O)N(CC(C)C)C2CCS(=O)(=O)C2)c(C)c1 (stereo not drawn),-23.1,,"10.3 µM [falling, partial curve, poor fit]"
CN(C)c1ccc(/C=N/NC(=O)CN(c2cccc(Cl)c2)S(C)(=O)=O)cc1Br,-31.4,,
CC(=O)N(C)c1ccc(NC(=O)/C=C/c2ccccc2Cl)cc1,-30.6,"7.31 µM [falling, partial curve, poor fit]","3.26 µM [falling, full curve]"
COc1ccc(-n2nc3c(c2NC(=O)c2ccc(Br)o2)CS(=O)(=O)C3)cc1,,"0.116 µM [rising, full curve, poor fit]",
COCCCNC(=O)CCCn1c(=O)c2ccccc2n(CC(=O)Nc2c(C)cc(C)cc2C)c1=O,38.5,"29.1 µM [rising, single point]","0.013 µM [rising, full curve, poor fit]"
OC(COc1ccc(Cl)cc1)CN1CCN(c2cccc(Cl)c2)CC1 (stereo not drawn),-40.4,"23.1 µM [falling, single point]","32.6 µM [falling, partial curve]"
O=C1N/C(=C/c2cccs2)C(=O)N1Cc1ccccc1F,31.6,,"2.06 µM [rising, full curve]"
CC(=O)c1cccc(S(=O)(=O)N2CCC(C(=O)Nc3cccc(C(=O)NC4CC4)c3)CC2)c1,-8.42,,"29.1 µM [falling, single point]"
CCN(CC)c1nc2n(c(=O)n1)CCN2CC,,,"2.91 µM [falling, full curve]"
Cc1ccc(C(=O)OC(C(=O)Nc2ccc(Cl)cc2C(F)(F)F)c2ccccc2)cc1 (stereo not drawn),1.38,,
O=C(CSc1ccccc1)Nc1nccs1,60.6,"16.4 µM [rising, single point]",
COC(=O)C1=C(C)OC(N)=C(C#N)C1c1ccc(OC)c(OC)c1OC (stereo not drawn),,"2.91 µM [rising, partial curve]",

# An excerpt of these results, tab-delimited:
SMILES	cell number change [%]	AC50 [1]	AC50 [2]
Cc1occc1C(=O)Nc1nn[nH]n1	5.16		6.51 µM [rising, single point]
CC1=C(C(=O)Nc2ccccc2)C2(CCCCC2)C(C#N)=C(SCC(N)=O)N1	-3.8		0.00461 µM [falling, full curve, poor fit]
Nn1c(-c2ccc(F)cc2)nc2ccccc2c1=O	27.9	3.26 µM [rising, full curve, poor fit]	29.1 µM [rising, single point]
Cc1cc(C(=O)Nc2sc3c(c2C#N)CCCCC3)cs1	-33.8	29.1 µM [falling, single point]	5.17 µM [rising, full curve, poor fit]
Cc1ccc(-n2ccnc2SCC(=O)N(CC(C)C)C2CCS(=O)(=O)C2)c(C)c1 (stereo not drawn)	-23.1		10.3 µM [falling, partial curve, poor fit]
